From patent publication US20200289474A1, “METHODS OF TREATING PAIN WITH A THIAZOLINE ANTI-HYPERALGESIC” (priority 2019, published 2020)
The name of at least one read-out is uncertain.

Test: rat 28-day GLP repeat dose PO study (toxicokinetics)
Type: in vivo
Settings: rat 28-day PO
Procedure: A 28-day GLP repeat dose study with Compound 1 in rats was conducted with oral gavage doses of 0, 500, 1000 or 2000 mg/kg/day at a dosing volume of 10 mL/kg. The vehicle was 0.5% HPMC. There were 15 rats/sex in the control and high dose groups (5/sex for a 14-day recovery period) while the low and mid doses consisted of 10 rats/sex. Satellite groups of rats/sex/group for toxicokinetics were included.
Rats in Group 1 (Vehicle Control) were bled once at approximately 1 hour post-dose on those days.

CC1(C)SC(Nc2ccccc2O)=N[C@@H]1C(=O)O.Cl [Compound 1, (R)-2-(2-hydroxyphenylamino)-5,5-dimethyl-4,5-dihydrothiazole-4-carboxylic acid mono-hydrochloride]
V/F (Vz/F) (Day 1, F, 1000 mg/kg): 6.15 L/kg | V/F (Vz/F) (Day 1, F, 2000 mg/kg): 17.6 L/kg | V/F (Vz/F) (Day 1, M, 500 mg/kg): 11.0 L/kg | V/F (Vz/F) (Day 1, M, 1000 mg/kg): 10.9 L/kg | V/F (Vz/F) (Day 1, M, 2000 mg/kg): 10.5 L/kg | V/F (Vss/F) (Day 14, F, 500 mg/kg): 13.6 L/kg | V/F (Vss/F) (Day 14, F, 1000 mg/kg): 14.0 L/kg | V/F (Vss/F) (Day 14, F, 2000 mg/kg): 10.9 L/kg | V/F (Vss/F) (Day 14, M, 500 mg/kg): 18.5 L/kg | V/F (Vss/F) (Day 14, M, 1000 mg/kg): 18.1 L/kg | V/F (Vss/F) (Day 14, M, 2000 mg/kg): 15.1 L/kg | V/F (Vss/F) (Day 28, F, 500 mg/kg): 11.2 L/kg | V/F (Vss/F) (Day 28, F, 1000 mg/kg): 6.26 L/kg | V/F (Vss/F) (Day 28, F, 2000 mg/kg): 8.70 L/kg | V/F (Vss/F) (Day 28, M, 500 mg/kg): 16.4 L/kg | V/F (Vss/F) (Day 28, M, 1000 mg/kg): 14.3 L/kg | V/F (Vss/F) (Day 28, M, 2000 mg/kg): 14.1 L/kg
